Source: article PMC6145937
No constants are given. Whether binding was seen depends on the method and setting. In cells and extracts the contact can be indirect. Some binding calls cover weakened binding; strength is not graded here.

Sequences of proteins named here, by UniProt entry; tags and fusion partners are left off. Residues count along the entry.
UniProt P08592, residues 18-770: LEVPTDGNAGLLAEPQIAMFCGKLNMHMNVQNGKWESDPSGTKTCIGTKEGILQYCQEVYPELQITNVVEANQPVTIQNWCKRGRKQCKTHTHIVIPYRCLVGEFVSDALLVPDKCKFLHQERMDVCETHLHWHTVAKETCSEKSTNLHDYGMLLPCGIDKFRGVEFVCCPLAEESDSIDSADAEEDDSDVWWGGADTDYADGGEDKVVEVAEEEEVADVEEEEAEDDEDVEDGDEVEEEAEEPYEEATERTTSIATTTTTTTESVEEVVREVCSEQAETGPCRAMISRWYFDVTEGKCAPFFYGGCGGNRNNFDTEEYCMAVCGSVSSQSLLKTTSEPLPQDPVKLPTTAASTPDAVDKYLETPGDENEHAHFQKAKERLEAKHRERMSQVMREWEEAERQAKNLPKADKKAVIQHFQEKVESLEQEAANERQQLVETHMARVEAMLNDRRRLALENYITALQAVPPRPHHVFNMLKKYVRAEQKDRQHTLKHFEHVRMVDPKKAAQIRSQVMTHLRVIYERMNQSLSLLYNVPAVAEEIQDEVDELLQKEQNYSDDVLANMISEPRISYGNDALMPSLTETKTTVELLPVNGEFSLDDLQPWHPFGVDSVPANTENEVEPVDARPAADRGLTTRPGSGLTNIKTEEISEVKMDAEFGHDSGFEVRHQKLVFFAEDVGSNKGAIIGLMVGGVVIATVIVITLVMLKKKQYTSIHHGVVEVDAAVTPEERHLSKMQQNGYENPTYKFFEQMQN

Target: T1, Vangl2 (van Gogh-like 2), endogenous in rat primary cortical neurons (rat (endogenous in primary cortical neurons)) (UniProt P84889)
T1 sequence: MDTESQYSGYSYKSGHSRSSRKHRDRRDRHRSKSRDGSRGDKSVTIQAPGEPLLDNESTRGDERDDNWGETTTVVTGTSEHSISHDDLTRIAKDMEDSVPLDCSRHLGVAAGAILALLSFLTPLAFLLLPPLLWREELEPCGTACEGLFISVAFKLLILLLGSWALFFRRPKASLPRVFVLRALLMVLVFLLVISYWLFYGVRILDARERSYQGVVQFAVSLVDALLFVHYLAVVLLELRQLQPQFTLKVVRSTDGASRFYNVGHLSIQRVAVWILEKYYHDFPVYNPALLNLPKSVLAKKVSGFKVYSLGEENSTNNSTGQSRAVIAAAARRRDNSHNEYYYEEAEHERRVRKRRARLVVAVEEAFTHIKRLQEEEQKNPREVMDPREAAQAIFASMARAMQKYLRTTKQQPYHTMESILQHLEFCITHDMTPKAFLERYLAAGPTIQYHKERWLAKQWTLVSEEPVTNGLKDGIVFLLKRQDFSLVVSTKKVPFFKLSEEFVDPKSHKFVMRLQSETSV
Experiment: co-IP; lysate of rat primary cortical neurons (21 d.i.c.), 1% Triton X-100 lysis buffer pH 7.5; IP with anti-LRP6 or anti-Vangl2 antibody on Protein G magnetic beads; APP detected by western blot

binding: binds
Substance: Amyloid Precursor Protein (APP), endogenous in rat primary cortical neurons (from UniProt P08592 18-770)
